Among the data in PMC9637652 are binding values, retold here.

By UniProt entry, the sequences of proteins in these tests, tags left out. Residues count along the entry.
UniProt P16070, residues 21-742: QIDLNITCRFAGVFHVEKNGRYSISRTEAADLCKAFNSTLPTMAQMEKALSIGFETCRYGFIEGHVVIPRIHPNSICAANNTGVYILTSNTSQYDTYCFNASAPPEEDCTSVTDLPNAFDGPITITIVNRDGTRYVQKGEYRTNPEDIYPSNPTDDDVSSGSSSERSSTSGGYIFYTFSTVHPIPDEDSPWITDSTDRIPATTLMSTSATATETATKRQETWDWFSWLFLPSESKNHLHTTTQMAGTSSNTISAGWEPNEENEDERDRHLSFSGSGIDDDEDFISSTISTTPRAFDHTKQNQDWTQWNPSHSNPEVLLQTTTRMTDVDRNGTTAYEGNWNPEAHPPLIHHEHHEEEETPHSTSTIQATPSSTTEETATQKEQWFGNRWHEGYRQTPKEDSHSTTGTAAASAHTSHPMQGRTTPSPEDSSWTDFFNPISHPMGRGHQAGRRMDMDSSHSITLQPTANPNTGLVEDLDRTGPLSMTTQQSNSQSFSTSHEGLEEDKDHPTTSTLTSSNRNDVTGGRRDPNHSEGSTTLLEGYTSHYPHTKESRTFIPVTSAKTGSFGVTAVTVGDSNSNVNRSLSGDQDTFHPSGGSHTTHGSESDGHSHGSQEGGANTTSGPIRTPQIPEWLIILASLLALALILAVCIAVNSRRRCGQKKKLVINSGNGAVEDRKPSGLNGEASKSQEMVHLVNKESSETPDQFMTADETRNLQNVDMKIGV
UniProt P26022, residues 18-381: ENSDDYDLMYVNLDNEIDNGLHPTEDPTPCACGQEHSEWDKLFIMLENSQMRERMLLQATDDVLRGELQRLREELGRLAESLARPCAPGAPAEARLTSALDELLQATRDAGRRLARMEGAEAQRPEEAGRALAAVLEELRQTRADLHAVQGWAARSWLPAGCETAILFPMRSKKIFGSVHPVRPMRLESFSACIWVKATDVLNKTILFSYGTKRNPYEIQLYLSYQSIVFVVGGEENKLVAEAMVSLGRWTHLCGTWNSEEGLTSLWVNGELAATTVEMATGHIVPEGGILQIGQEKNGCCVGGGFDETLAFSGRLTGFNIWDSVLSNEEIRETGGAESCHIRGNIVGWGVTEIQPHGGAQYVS

No constants are given. Whether binding was seen depends on the method and setting. In cells and extracts the contact can be indirect. Some entries that bind do so weakly or less than the wild type.

This test deals with CD44 on HFL1 cells (human (endogenous in HFL1)) (UniProt P16070). In words: proximity ligation; HFL1 cells on coverslips treated with or without 100 ng/ml His-PTX3 for 1 h, fixed with 4% paraformaldehyde; in situ PLA with anti-His and anti-CD44 (active form) antibodies; puncta per cell counted; only the binder purified.

For the substance “His‐PTX3 fusion protein (from UniProt P26022 18-381) (ligand)”, the binding result is on record as “binds”.
